Part of at least one peptide drawing is inferred or uncertain, most often the ends. Where no end group is shown, it is not given here.
Tests used:
endogenous CD4+ T cells = assay type: in vivo, mouse
P25TCRTh1 cells [1] = assay: In vitro restimulation of P25TCRTh1 cells with irradiated splenocytes, intracellular IFN-γ by flow cytometry; assay type: cell-based, mouse; conditions: incubated with irradiated splenocytes, peptide added in vitro (0.5 μM); intracellular staining and flow cytometry; <1.0% without peptide
P25TCRTh1 cells [2] = assay type: in vivo, mouse

Sequence: FQDAYNAAGGHNAVF [peptide 25, FQDAYNAAGGHNAVF]
- frequency of IFN-γ+ cells (endogenous CD4+ T cells; endogenous CD4+ T cells, 72 hours post-treatment): returned to levels observed in the absence of peptide 25 injection
- time after treatment at which frequency of IFN-γ cells was highest (endogenous CD4+ T cells; endogenous CD4+ T cells, lungs, after i.v. peptide): 6 h
- frequency of IFN-γ cells relative to maximal levels (endogenous CD4+ T cells; endogenous CD4+ cells, 24 hours after peptide injection): approximately 20 % of maximal levels
- IFN-γ expression response of endogenous CD4+ T cells (endogenous CD4+ T cells; mouse, in vivo, iv): did not respond
- frequency of IFN-γ expression by endogenous CD4+ T cells (endogenous CD4+ T cells; mouse, in vivo, iv): stimulated a higher frequency of IFN-γ expression
- IFN-γ expression in P25TCRTh1 cells (P25TCRTh1 cells [1]): ~90%
- frequency of IFN-γ cells relative to maximal levels (P25TCRTh1 cells [2]; P25TCRTh1 cells, 24 hours after peptide injection): approximately 20 % of maximal levels
- frequency of IFN-γ+ cells (P25TCRTh1 cells [2]; P25TCRTh1 cells, 72 hours post-treatment): returned to levels observed in the absence of peptide 25 injection
- time after treatment at which frequency of IFN-γ cells was highest (P25TCRTh1 cells [2]; P25TCRTh1 cells, lungs, after i.v. peptide): 6 h
- frequency of IFN-γ+ P25TCRTh1 cells (P25TCRTh1 cells [2]; mouse, in vivo, iv): 20-50%
- stimulation of P25TCRTh1 cells (IFN-γ) (P25TCRTh1 cells [2]; mouse, in vivo, iv): stimulated at a higher frequency

Source: patent US20130243801A1, “EPITOPE THERAPY FOR INFECTIOUS DISEASES” (NEW YORK UNIVERSITY, priority 2010, published 2013)
